{"source": "the supplement of paper PMC3334620", "note": "The full ranking holds about 33,000 sequences; the median of “E-score (-0.5 to 0.5)” is about -0.0014, and the highest 2% start at about 0.25. This is one part of the list."}
{"biological_target": "T1, Cad1 (UniProt P24813)", "T1 sequence": "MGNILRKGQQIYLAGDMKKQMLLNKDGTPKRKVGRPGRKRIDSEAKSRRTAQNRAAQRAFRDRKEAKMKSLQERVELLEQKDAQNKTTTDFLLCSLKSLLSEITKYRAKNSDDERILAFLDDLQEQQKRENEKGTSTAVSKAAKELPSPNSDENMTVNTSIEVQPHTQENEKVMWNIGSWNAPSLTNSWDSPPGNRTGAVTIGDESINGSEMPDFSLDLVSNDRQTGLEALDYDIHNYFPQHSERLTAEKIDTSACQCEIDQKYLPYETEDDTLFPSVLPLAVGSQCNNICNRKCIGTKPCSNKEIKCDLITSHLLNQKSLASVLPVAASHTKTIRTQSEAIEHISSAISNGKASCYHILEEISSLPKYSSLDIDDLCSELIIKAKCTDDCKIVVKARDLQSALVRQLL", "assay": "PBM E-score (8-mer binding enrichment) (E-score (-0.5 to 0.5)); higher = stronger / more preferred TF binding", "conditions": "protein concentration: 100 nM; construct: GST-full length", "outline": "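Each ungapped eight-base word and its reverse complement, pooled, received an E-score from the Universal PBM Analysis Suite. Underlying scans, normalised with masliner, recorded fluorescent anti-GST bound to GST-tagged yeast transcription factors. These were applied at about 100-200 nM to universal all-10-mer Agilent arrays double-stranded by primer extension.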"}
{"sequence": "CAGAGCTC", "PBM E-score": -0.111}
{"sequence": "GCACCAAC", "PBM E-score": 0.0419}
{"sequence": "GCGCGACA", "PBM E-score": 0.063}
{"sequence": "ACGGGCTC", "PBM E-score": -0.343}
{"sequence": "AGGCACAA", "PBM E-score": -0.186}
{"sequence": "AGAGATCT", "PBM E-score": -0.121}
{"sequence": "GAACCGTC", "PBM E-score": 0.0099}
{"sequence": "GAGTTACC", "PBM E-score": -0.0592}
{"sequence": "ACGGTTCA", "PBM E-score": -0.195}
{"sequence": "CAAATTGA", "PBM E-score": -0.121}
{"sequence": "AAGCCTCT", "PBM E-score": -0.188}
{"sequence": "AAGGTGAG", "PBM E-score": -0.192}
{"sequence": "AAGCTGCA", "PBM E-score": 0.0246}
{"sequence": "TACGAACA", "PBM E-score": 0.135}
{"sequence": "CGGAAGAA", "PBM E-score": -0.115}
{"sequence": "CTACTGCC", "PBM E-score": -0.162}
{"sequence": "GCCCTTGA", "PBM E-score": -0.0525}
{"sequence": "CAACCTCA", "PBM E-score": -0.0901}
{"sequence": "ACGCTAGT", "PBM E-score": -0.092}
{"sequence": "CGGTGGCC", "PBM E-score": -0.0627}
{"sequence": "AAAAACTG", "PBM E-score": -0.156}
{"sequence": "CGGCAGGA", "PBM E-score": -0.0676}
{"sequence": "GAGGCTAA", "PBM E-score": 0.0414}
{"sequence": "CCCGCAAC", "PBM E-score": 0.112}
{"sequence": "TAGATGAA", "PBM E-score": -0.00205}
{"sequence": "GCACACCC", "PBM E-score": -0.145}
{"sequence": "CTACGCCA", "PBM E-score": -0.255}
{"sequence": "CCGAAGTC", "PBM E-score": 0.0614}
{"sequence": "TGCATCCA", "PBM E-score": 0.164}
{"sequence": "TCAGGGCA", "PBM E-score": -0.0323}
{"sequence": "ACTACGCT", "PBM E-score": -0.0695}
{"sequence": "AAACCCCT", "PBM E-score": -0.309}
{"sequence": "ATTAGAAC", "PBM E-score": 0.173}
{"sequence": "ACATGAGA", "PBM E-score": 0.108}
{"sequence": "AGCACGCA", "PBM E-score": -0.00337}
{"sequence": "TCTGTTAA", "PBM E-score": 0.153}
{"sequence": "ATGGGCGC", "PBM E-score": -0.147}
{"sequence": "GGTAAGCA", "PBM E-score": 0.257}
{"sequence": "ACGGGTTG", "PBM E-score": -0.238}
{"sequence": "GACGGTCC", "PBM E-score": -0.287}
{"sequence": "ACAAGTTG", "PBM E-score": 0.0213}
{"sequence": "GATGTTCA", "PBM E-score": -0.185}
{"sequence": "CCTGCGTC", "PBM E-score": -0.214}
{"sequence": "AACAAACA", "PBM E-score": 0.148}
{"sequence": "GCCAACGA", "PBM E-score": -0.033}
{"sequence": "AAATTTAG", "PBM E-score": 0.171}
{"sequence": "CCGGAGCG", "PBM E-score": -0.129}
{"sequence": "CAACGGGC", "PBM E-score": -0.0451}
{"sequence": "ACGACGAG", "PBM E-score": -0.0822}
{"sequence": "AAGCTATT", "PBM E-score": -0.0735}
{"sequence": "CTGTTATA", "PBM E-score": 0.0918}
{"sequence": "AAACGGAG", "PBM E-score": -0.0203}
{"sequence": "CAACTTAG", "PBM E-score": 0.138}
{"sequence": "GATTGTAA", "PBM E-score": 0.197}
{"sequence": "ACTAGTCT", "PBM E-score": -0.109}
{"sequence": "AATGGAGA", "PBM E-score": -0.113}
{"sequence": "AGGCAAAG", "PBM E-score": -0.132}
{"sequence": "ATTTGTTG", "PBM E-score": 0.125}
{"sequence": "GACCCTGC", "PBM E-score": -0.22}
{"sequence": "AGGGATAA", "PBM E-score": 0.0184}
{"sequence": "ATTCACGA", "PBM E-score": 0.0324}
{"sequence": "GCCGCCGA", "PBM E-score": 0.277}
{"sequence": "CGGTAGGA", "PBM E-score": -0.0236}
{"sequence": "CGTGCCGA", "PBM E-score": -0.0182}
{"sequence": "ATCCTACG", "PBM E-score": -0.201}
{"sequence": "AGGGCGTA", "PBM E-score": -0.058}
{"sequence": "GCACCGGC", "PBM E-score": -0.0831}
{"sequence": "TACAAGTA", "PBM E-score": -0.0543}
{"sequence": "CCGGTCGA", "PBM E-score": -0.105}
{"sequence": "AAACATAA", "PBM E-score": -0.131}
{"sequence": "TAAACATA", "PBM E-score": 0.221}
{"sequence": "ATCTACAT", "PBM E-score": 0.0986}
{"sequence": "GGGTACGA", "PBM E-score": -0.0805}
{"sequence": "ATATCCAG", "PBM E-score": 0.0219}
{"sequence": "CCCACTTC", "PBM E-score": -0.105}
{"sequence": "ATAGGGAG", "PBM E-score": -0.22}
{"sequence": "ATAATCCA", "PBM E-score": 0.252}
{"sequence": "GTGCCCAA", "PBM E-score": 0.0779}
{"sequence": "GAGTATAC", "PBM E-score": 0.0502}
{"sequence": "CAATACGA", "PBM E-score": 0.149}
{"sequence": "ACGGTCTG", "PBM E-score": 0.0288}
{"sequence": "AATCTGAG", "PBM E-score": -0.0799}
{"sequence": "CTTTAAAA", "PBM E-score": 0.0136}
{"sequence": "GACTAAGC", "PBM E-score": 0.228}
{"sequence": "CAGCTACA", "PBM E-score": 0.0442}
{"sequence": "GCCTTGCC", "PBM E-score": -0.151}
